Data from PMC7734065.
Results are given in words; binding and its absence hold for the method and conditions named. In cells and extracts the contact can be indirect. Some entries that bind do so weakly or less than the wild type. Values belong to the molecule of their own block, whether it stands above or below them.

The chains behind the UniProt entries cited, without tags or fusion partners.
UniProt P84022: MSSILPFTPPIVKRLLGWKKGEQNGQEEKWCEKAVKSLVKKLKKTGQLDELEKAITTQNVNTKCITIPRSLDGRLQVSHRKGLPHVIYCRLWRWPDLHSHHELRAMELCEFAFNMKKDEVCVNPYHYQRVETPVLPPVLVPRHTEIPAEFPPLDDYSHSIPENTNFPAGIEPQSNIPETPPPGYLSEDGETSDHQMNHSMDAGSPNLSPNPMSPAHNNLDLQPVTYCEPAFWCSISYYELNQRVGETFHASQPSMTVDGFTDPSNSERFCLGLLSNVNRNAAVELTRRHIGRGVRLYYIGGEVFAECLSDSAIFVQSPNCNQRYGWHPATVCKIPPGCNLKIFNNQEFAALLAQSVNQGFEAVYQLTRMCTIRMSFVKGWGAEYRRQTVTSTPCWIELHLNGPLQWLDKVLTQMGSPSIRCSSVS
UniProt Q8BUN5: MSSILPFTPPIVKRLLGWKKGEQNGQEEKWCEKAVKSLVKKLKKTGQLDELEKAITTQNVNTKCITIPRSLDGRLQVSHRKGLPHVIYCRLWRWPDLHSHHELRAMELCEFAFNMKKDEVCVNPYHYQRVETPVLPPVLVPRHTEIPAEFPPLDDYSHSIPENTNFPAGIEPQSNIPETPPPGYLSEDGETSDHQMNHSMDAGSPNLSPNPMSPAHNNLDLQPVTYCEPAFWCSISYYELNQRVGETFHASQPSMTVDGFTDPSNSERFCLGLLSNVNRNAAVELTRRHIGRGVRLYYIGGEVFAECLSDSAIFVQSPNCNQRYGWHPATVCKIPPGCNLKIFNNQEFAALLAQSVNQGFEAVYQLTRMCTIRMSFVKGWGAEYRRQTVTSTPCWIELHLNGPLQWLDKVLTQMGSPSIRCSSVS

Experiments:
[1] = target: T1, activating transcription factor 3 (ATF3) (human (endogenous in LX-2)) (UniProt P18847); test: co-IP; ATF3 and SMAD3 antibodies used for co-immunoprecipitation with whole cell lysates of LX-2 cells treated with or without TGF-β; immunoblot
T1 sequence: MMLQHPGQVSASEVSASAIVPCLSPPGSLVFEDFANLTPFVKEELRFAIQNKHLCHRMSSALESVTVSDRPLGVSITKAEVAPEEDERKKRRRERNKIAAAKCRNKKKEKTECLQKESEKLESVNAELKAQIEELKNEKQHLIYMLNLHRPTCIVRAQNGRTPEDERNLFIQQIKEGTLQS

[2] = target: T2, activating transcription factor 3 (ATF3), primary mouse HSCs (mouse (endogenous in primary HSCs)) (UniProt Q60765); test: co-IP; co-immunoprecipitation in primary HSCs (Supplementary Fig. 10b); whole cell lysate, immunoblot
T2 sequence: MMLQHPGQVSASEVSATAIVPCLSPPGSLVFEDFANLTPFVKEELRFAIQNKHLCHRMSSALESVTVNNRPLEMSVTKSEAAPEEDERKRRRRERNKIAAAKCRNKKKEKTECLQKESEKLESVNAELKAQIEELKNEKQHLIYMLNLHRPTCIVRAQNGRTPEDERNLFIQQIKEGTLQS

[3] = target: SMAD3 (human (endogenous in LX-2)) (UniProt P84022); test: co-IP; ATF3 and SMAD3 antibodies used for co-immunoprecipitation with whole cell lysates of LX-2 cells treated with or without TGF-β; immunoblot
[4] = target: SMAD3, primary mouse HSCs (mouse (endogenous in primary HSCs)) (UniProt Q8BUN5); test: co-IP; co-immunoprecipitation in primary HSCs (Supplementary Fig. 10b); whole cell lysate, immunoblot

Molecule: SMAD3, primary mouse HSCs (from UniProt Q8BUN5 1-425)
- binding [2]: binds

B2: activating transcription factor 3 (ATF3), primary mouse HSCs (protein, UniProt Q60765 1-181)
chain: MMLQHPGQVSASEVSATAIVPCLSPPGSLVFEDFANLTPFVKEELRFAIQNKHLCHRMSSALESVTVNNRPLEMSVTKSEAAPEEDERKRRRRERNKIAAAKCRNKKKEKTECLQKESEKLESVNAELKAQIEELKNEKQHLIYMLNLHRPTCIVRAQNGRTPEDERNLFIQQIKEGTLQS
- binding [4]: binds

Other lines, results leading:

- binding [1]: binds
Molecule: SMAD3 (from UniProt P84022 1-425)

- binding [3]: binds
B1: activating transcription factor 3 (ATF3) (protein, UniProt P18847 1-181)
chain: MMLQHPGQVSASEVSASAIVPCLSPPGSLVFEDFANLTPFVKEELRFAIQNKHLCHRMSSALESVTVSDRPLGVSITKAEVAPEEDERKKRRRERNKIAAAKCRNKKKEKTECLQKESEKLESVNAELKAQIEELKNEKQHLIYMLNLHRPTCIVRAQNGRTPEDERNLFIQQIKEGTLQS
